In PubChem BioAssay AID624297 (National Center for Advancing Translational Sciences (NCATS), 2012):
About 6,200 (1.8%) of roughly 340,000 compounds were called active. Inconclusive means that the source gave no clear call. Such entries were picked first, then a sample of the others. Calls follow the shape of the dose curve; as a rule, active = well fitted activation curve with a large enough effect; inconclusive = small, poorly fitted or top-dose-only effect; inactive = no such curve, though single readings can be large or run the other way. Potencies beside an inconclusive call are fits to weak or partial responses and may not hold up.
Potency is read from the fitted curve at half-maximal effect.

Test: A quantitative high throughput screen for small molecules that induce DNA re-replication in SW480 colon adenocarcinoma cells. Also: nearly all actives have a fitted effect of over 55% in size. As to re-replication activation: % of control where 0% means no effect.
Details: Hoechst DNA content imaging, 48 h; re-replication activation: at 46.1 µM (top of the series) unless noted
Outline: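 Image-based read-out: total Hoechst fluorescence of nuclei (405 nm excitation, 500-530 nm emission), with hits raising the fraction of high-intensity nuclei. SW480 colon cells incubated 48 hr with compounds at 37 C.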
With `O=C(N=C1SC2CS(=O)(=O)CC2N1c1ccc(Cl)cc1Cl)C1CCCO1` (stereo not drawn) the Potency was inconclusive: 29.1 µM [activator, single point].
For `CC(C)(C)NC(=O)C(c1ccc(F)cc1)N(Cc1cccs1)C(=O)c1ccc(CN2CCOCC2)o1` (stereo not drawn), the “re-replication activation” value was inactive: -1.98%.
With `O=C(c1ccc(NS(=O)(=O)c2ccc3c(c2)OCCO3)cc1)N1CCCCC1` the Potency was inconclusive: 5.8 µM [activator, partial curve].
For `CCCOc1ccc(C(=O)NNC(=S)NC(=O)CC)cc1`, the Potency was inconclusive: 16.4 µM [activator, single point].
In the case of `Cc1cc(OCC(=O)NCCCN2CCOCC2)c2c(C)c(C)c(=O)oc2c1`, the Potency is reported as inconclusive: 29.1 µM [activator, single point].
For `O=C1c2cccc3cc(Br)cc(c23)C(=O)N1Nc1ccccc1`, the re-replication activation was inactive: -1.37% [at 9.22 µM].
With `Cc1ccc(C2C(C(=O)c3ccco3)=C(O)C(=O)N2c2ncccn2)cc1` (stereo not drawn) the Potency was inconclusive: 16.4 µM [activator, single point].
For `NNc1nc2c(-c3ccc(F)cc3)nnn2c2ccccc12`, the Potency was inconclusive: 23.1 µM [activator, single point].
For `O=C1COc2ccc(S(=O)(=O)CCC(=O)NC3CCCCC3)cc2N1`, the “re-replication activation” value was inactive: -6.7%.
For `COc1cc(OC)cc(C(=O)N2CCN(Cc3ccc4c(c3)OCO4)CC2)c1`, the “re-replication activation” value was inactive: -2.62%.
With `COc1ccccc1NC(=O)COC(=O)CCn1c(C)csc1=O` the Potency was inconclusive: 6.51 µM [activator, partial curve, poor fit].
In the case of `CCOCCCn1c(=NC(C)=O)c(C#N)cc2c(=O)n3cccc(C)c3nc21`, the Potency is reported as active: 13 µM.
For `COc1ccc(C(=O)NC(C)c2ccncc2)cc1S(=O)(=O)N(C)Cc1ccccc1` (stereo not drawn), the Potency was inconclusive: 29.1 µM [activator, single point].
With `O=C1c2ccccc2S(=O)(=O)c2cc(N3CCN(C(=O)c4ccccc4)CC3)ccc21` the re-replication activation was inactive: -57.1% [at 9.22 µM].
In the case of `COc1ccc(S(=O)(=O)N2CCCCCC2)cc1C(=O)N(C)Cc1ccc(Cl)cc1Cl`, the “re-replication activation” value is reported as inactive: -23.6%.
For `N#CC1=C(N)SC(N)=C(C#N)C1CCc1ccccc1`, the “re-replication activation” value was inactive: -13.1%.
For `CSc1nc2ccccc2cc1/C=C(\C#N)c1ccccc1`, the Potency was inconclusive: 25.9 µM [activator, single point].
In the case of `COc1ccc(O[C@H]2C=C[C@@H](c3ccccc3)O[C@@H]2CO/N=C(\C)CCN2CCCCc3nc(C)c(C)cc32)cc1`, the Potency is reported as inconclusive: 6.51 µM [activator, full curve, poor fit].
In the case of `O=C(Nc1ncc(Cc2ccc(SC(F)F)cc2)s1)c1ccc(OC(F)F)cc1`, the Potency is reported as inconclusive: 0.184 µM [activator, full curve, poor fit].
With `O=C(NCc1ccc(F)cc1Cl)C1CC(=O)N(C2CCCCCCC2)C1` (stereo not drawn) the Potency was inconclusive: 23.1 µM [activator, single point].
With `CC(C)Nc1ncnc2ccc(Br)cc12` the Potency was inconclusive: 0.517 µM [activator, partial curve, poor fit].
With `Cc1cc2cc(CN(Cc3ccco3)S(=O)(=O)c3c(C)ccc4nsnc34)c(=O)[nH]c2cc1C` the Potency was inconclusive: 4.61 µM [activator, partial curve].
For `O=C(NNC(=O)c1ccccc1O)c1ccc(Cl)cc1`, the Potency was inconclusive: 20.6 µM [activator, single point].
For `Cc1cc(C(=O)NCc2ccco2)c2ccccc2n1`, the “re-replication activation” value was inactive: -5.44%.
In the case of `COc1ccc(C(=O)c2ccc(Br)cc2)c2ccccc12`, the “re-replication activation” value is reported as inactive: -2.35%.
With `CN(C)CCN(Cc1ccc(Cl)cc1)c1ccccn1` the Potency was “inactive”.
In the case of `COc1ccc(/C=C(\C#N)C(=O)NCCc2ccccc2)cc1OCc1ccccc1`, the Potency is reported as inconclusive: 29.1 µM [activator, single point].
With `O=C(c1ccc2c(=O)n3c(nc2c1)CCCCC3)N1CCN(C(c2ccccc2)c2ccccc2)CC1` the Potency was inconclusive: 29.1 µM [activator, single point].
With `CSc1ccc(CN(C)C(=O)C2CCN(C(=O)Nc3ccccc3)CC2)cc1` the Potency was inconclusive: 18.4 µM [activator, single point].
For `CCCN(S(=O)(=O)c1ccc(OCC)cc1)S(=O)(=O)c1cccs1`, the Potency was inconclusive: 16.4 µM [activator, partial curve, poor fit].
For `CCC(=O)N1CCc2cc(S(=O)(=O)CCC(=O)N(C)c3ccc(OC)cc3)ccc21`, the Potency was inconclusive: 0.651 µM [activator, full curve, poor fit].
For `NC(=S)NN=C1c2cc(OCCN3CCOCC3)ccc2-c2ccc(OCCN3CCOCC3)cc21`, the Potency was inconclusive: 3.16 µM [activator, partial curve, poor fit].
For `COc1ccc(NC(=S)N(Cc2ccc(N(C)C)cc2)Cc2ccco2)cc1`, the “re-replication activation” value was inactive: 5.85%.
With `Clc1ccc2c(c1)Nc1ccccc1CC2` the “re-replication activation” value was inactive: -0.816%.
In the case of `Clc1cccc(Cl)c1COn1nnc2ccccc21`, the Potency is reported as inconclusive: 29.1 µM [activator, single point].
For `COc1ccc(-c2cc(C(F)F)n3ncc(C(=O)N4CCc5ccccc5C4)c3n2)cc1`, the Potency was active: 14.6 µM.
For `COc1ccccc1N1CCN(C(=O)CCNS(=O)(=O)c2cc(Br)cnc2N)CC1`, the Potency was inconclusive: 6.51 µM [activator, full curve].
With `Cc1ccc(NC(=O)C2C3CC4OC(=O)C2C4C3)cc1Cl` (stereo not drawn) the “re-replication activation” value was inactive: 0.696%.
With `CC1CCN(c2ccccc2NC(=O)c2ccc(C#N)cc2F)CC1` the Potency was inconclusive: 20.6 µM [activator, partial curve, poor fit].
With `COc1cc([C@H]2c3[nH]c4ccccc4c3C[C@H]3C(=O)N4[C@@H](c5cc(OC)c(OC)c(OC)c5)c5[nH]c6ccccc6c5C[C@H]4C(=O)N23)cc(OC)c1OC` the Potency was inconclusive: 3.26 µM [activator, full curve].
In the case of `CN(C)S(=O)(=O)c1cc(NC(=O)CN2C(=O)NC3(CCCc4ccccc43)C2=O)ccc1Cl` (stereo not drawn), the Potency is reported as inconclusive: 23.1 µM [activator, partial curve, poor fit].
In the case of `Cc1ccc(NC(=O)CCl)c(C)c1`, the Potency is reported as inconclusive: 20.6 µM [activator, single point].
With `Cc1ccc(CN2CC(C(=O)Nc3ccc(F)c([N+](=O)[O-])c3)CC2=O)cc1` (stereo not drawn) the Potency was inconclusive: 29.1 µM [activator, single point].
